Patent publication US5328840A (The Research Foundation of the State University of New York, priority 1991, dated 1994)

Experiments:
[1] = general procedure: Boc solid-phase peptide synthesis; 4-methylbenzhydrylamine (4-MBHA) resin; conditions: whole synthesis, 220 nm
erythrocytes = experiment: Laser diffraction ektacytometry (deformability index)

Substance	crude HPLC purity [1]	deformability properties (laser ektacytometry) compared with control and untreated erythrocytes (erythrocytes)	plateau deformability index (erythrocytes; normal range 0.6±0.02 from more than 200 individuals)
Ac-CGGRGDF-NH2	45-57%		
thrombo-erythrocytes: erythrocytes covalently conjugated through Mal-Sac-HNSA to the peptide acetyl-Cys-Gly-Gly-Arg-Gly-Asp-Phe-amide (Ac-CGGRGDF-NH2) (N-acetyl, C-amide, conjugated to erythrocytes via Mal-Sac-HNSA; printed: Cys-Gly-Gly-Arg-Gly-Asp-Phe-)		same deformability properties	within the normal range
